Measurements: US11220671B2, “Methods for the maturation of cardiomyocytes on amniotic fluid cell-derived ECM, cellular constructs, and uses for cardiotoxicity and proarrhythmic screening of drug compounds” (STEMBIOSYS, INC., priority 2019, dated 2022)

B1: Magnesium transporter protein 1 (protein, UniProt Q9H0U3 30-335, looked up)
Dolichyl-diphosphooligosacchar …: QRKKEMVLSEKVSQLMEWTNKRPVIRMNGDKFRRLVKAPPRNYSVIVMFTALQLHRQCVVCKQADEEFQILANSWRYSSAFTNRIFFAMVDFDEGSDVFQMLNMNSAPTFINFPAKGKPKRGDTYELQVRGFSAEQIARWIADRTDVNIRVIRPPNYAGPLMLGLLLAVIGGLVYLRRSNMEFLFNKTGWAFAALCFVLAMTSGQMWNHIRGPPYAHKNPHTGHVNYIHGSSQAQFVAETHIVLLFNGGVTLGMVLLCEAATSDMDIGKRKIMCVAGIGLVVLFFSWMLSIFRSKYHGYPYSFLMS
B2: ATP-citrate synthase (protein, UniProt P53396 1-1101, looked up)
ATP-citrate synthase: MSAKAISEQTGKELLYKFICTTSAIQNRFKYARVTPDTDWARLLQDHPWLLSQNLVVKPDQLIKRRGKLGLVGVNLTLDGVKSWLKPRLGQEATVGKATGFLKNFLIEPFVPHSQAEEFYVCIYATREGDYVLFHHEGGVDVGDVDAKAQKLLVGVDEKLNPEDIKKHLLVHAPEDKKEILASFISGLFNFYEDLYFTYLEINPLVVTKDGVYVLDLAAKVDATADYICKVKWGDIEFPPPFGREAYPEEAYIADLDAKSGASLKLTLLNPKGRIWTMVAGGGASVVYSDTICDLGGVNELANYGEYSGAPSEQQTYDYAKTILSLMTREKHPDGKILIIGGSIANFTNVAATFKGIVRAIRDYQGPLKEHEVTIFVRRGGPNYQEGLRVMGEVGKTTGIPIHVFGTETHMTAIVGMALGHRPIPNQPPTAAHTANFLLNASGSTSTPAPSRTASFSESRADEVAPAKKAKPAMPQDSVPSPRSLQGKSTTLFSRHTKAIVWGMQTRAVQGMLDFDYVCSRDEPSVAAMVYPFTGDHKQKFYWGHKEILIPVFKNMADAMRKHPEVDVLINFASLRSAYDSTMETMNYAQIRTIAIIAEGIPEALTRKLIKKADQKGVTIIGPATVGGIKPGCFKIGNTGGMLDNILASKLYRPGSVAYVSRSGGMSNELNNIISRTTDGVYEGVAIGGDRYPGSTFMDHVLRYQDTPGVKMIVVLGEIGGTEEYKICRGIKEGRLTKPIVCWCIGTCATMFSSEVQFGHAGACANQASETAVAKNQALKEAGVFVPRSFDELGEIIQSVYEDLVANGVIVPAQEVPPPTVPMDYSWARELGLIRKPASFMTSICDERGQELIYAGMPITEVFKEEMGIGGVLGLLWFQKRLPKYSCQFIEMCLMVTADHGPAVSGAHNTIICARAGKDLVSSLTSGLLTIGDRFGGALDAAAKMFSKAFDSGIIPMEFVNKMKKEGKLIMGIGHRVKSINNPDMRVQILKDYVRQHFPATPLLDYALEVEKITTSKKPNLILNVDGLIGVAFVDMLRNCGSFTREEADEYIDIGALNGIFVLGRSMGFIGHYLDQKRLKQGLYRHPWDDISYVLPEHMSM
B3: MARCKS-related protein (protein, UniProt P49006 2-195, looked up)
MARCKS-related protein: GSQSSKAPRGDVTAEEAAGASPAKANGQENGHVKSNGDLSPKGEGESPPVNGTDEAAGATGDAIEPAPPSQGAEAKGEVPPKETPKKKKKFSFKKPFKLSGLSFKRNRKEGGGDSSASSPTEEEQEQGEIGACSDEGTAQEGKAAATPESQEPQAKGAEASAASEEEAGPQATEPSTPSGPESGPTPASAEQNE
B4: Laminin subunit beta-3 (protein, UniProt Q13751 18-1172, looked up)
Laminin subunit beta-3: QQACSRGACYPPVGDLLVGRTRFLRASSTCGLTKPETYCTQYGEWQMKCCKCDSRQPHNYYSHRVENVASSSGPMRWWQSQNDVNPVSLQLDLDRRFQLQEVMMEFQGPMPAGMLIERSSDFGKTWRVYQYLAADCTSTFPRVRQGRPQSWQDVRCQSLPQRPNARLNGGKVQLNLMDLVSGIPATQSQKIQEVGEITNLRVNFTRLAPVPQRGYHPPSAYYAVSQLRLQGSCFCHGHADRCAPKPGASAGPSTAVQVHDVCVCQHNTAGPNCERCAPFYNNRPWRPAEGQDAHECQRCDCNGHSETCHFDPAVFAASQGAYGGVCDNCRDHTEGKNCERCQLHYFRNRRPGASIQETCISCECDPDGAVPGAPCDPVTGQCVCKEHVQGERCDLCKPGFTGLTYANPQGCHRCDCNILGSRRDMPCDEESGRCLCLPNVVGPKCDQCAPYHWKLASGQGCEPCACDPHNSLSPQCNQFTGQCPCREGFGGLMCSAAAIRQCPDRTYGDVATGCRACDCDFRGTEGPGCDKASGRCLCRPGLTGPRCDQCQRGYCNRYPVCVACHPCFQTYDADLREQALRFGRLRNATASLWSGPGLEDRGLASRILDAKSKIEQIRAVLSSPAVTEQEVAQVASAILSLRRTLQGLQLDLPLEEETLSLPRDLESLDRSFNGLLTMYQRKREQFEKISSADPSGAFRMLSTAYEQSAQAAQQVSDSSRLLDQLRDSRREAERLVRQAGGGGGTGSPKLVALRLEMSSLPDLTPTFNKLCGNSRQMACTPISCPGELCPQDNGTACGSRCRGVLPRAGGAFLMAGQVAEQLRGFNAQLQRTRQMIRAAEESASQIQSSAQRLETQVSASRSQMEEDVRRTRLLIQQVRDFLTDPDTDAATIQEVSEAVLALWLPTDSATVLQKMNEIQAIAARLPNVDLVLSQTKQDIARARRLQAEAEEARSRAHAVEGQVEDVVGNLRQGTVALQEAQDTMQGTSRSLRLIQDRVAEVQQVLRPAEKLVTSMTKQLGDFWTRMEELRHQARQQGAEAVQAQQLAEGASEQALSAQEGFERIKQKYAELKDRLGQSSMLGEQGARIQSVKTEAEELFGETMEMMDRMKDMELELLRGSQAIMLRSADLTGLEKRVEQIRDHINGRVLYYATCK
B5: Metastasis-associated protein MTA2 (protein, UniProt O94776 1-668, looked up)
Metastasis-associated protein …: MAANMYRVGDYVYFENSSSNPYLVRRIEELNKTANGNVEAKVVCLFRRRDISSSLNSLADSNAREFEEESKQPGVSEQQRHQLKHRELFLSRQFESLPATHIRGKCSVTLLNETDILSQYLEKEDCFFYSLVFDPVQKTLLADQGEIRVGCKYQAEIPDRLVEGESDNRNQQKMEMKVWDPDNPLTDRQIDQFLVVARAVGTFARALDCSSSIRQPSLHMSAAAASRDITLFHAMDTLQRNGYDLAKAMSTLVPQGGPVLCRDEMEEWSASEAMLFEEALEKYGKDFNDIRQDFLPWKSLASIVQFYYMWKTTDRYIQQKRLKAAEADSKLKQVYIPTYTKPNPNQIISVGSKPGMNGAGFQKGLTCESCHTTQSAQWYAWGPPNMQCRLCASCWIYWKKYGGLKTPTQLEGATRGTTEPHSRGHLSRPEAQSLSPYTTSANRAKLLAKNRQTFLLQTTKLTRLARRMCRDLLQPRRAARRPYAPINANAIKAECSIRLPKAAKTPLKIHPLVRLPLATIVKDLVAQAPLKPKTPRGTKTPINRNQLSQNRGLGGIMVKRAYETMAGAGVPFSANGRPLASGIRSSSQPAAKRQKLNPADAPNPVVFVATKDTRALRKALTHLEMRRAARRPNLPLKVKPTLIAVRPPVPLPAPSHPASTNEPIVLED

Test: Composition of amniotic fluid cell-derived ECM by mass spectrometry (total spectra count)
[1] = amniotic fluid cell-derived ECM Matrix A, mass spectrometry, label = protein component
[2] = amniotic fluid cell-derived ECM Matrix B, mass spectrometry, label = protein component
[3] = amniotic fluid cell-derived ECM Matrix C, mass spectrometry, label = protein component
[4] = amniotic fluid cell-derived ECM Matrix D, mass spectrometry, label = protein component

Molecule | Total Spectra Count Matrix A [1] | Total Spectra Count Matrix B [2] | Total Spectra Count Matrix C [3] | Total Spectra Count Matrix D [4] | Total Spectra Count Matrix A (protein component found by mass spectrometry in amniotic fluid cell-derived ECM Matrix A (Example 1)) | Total Spectra Count Matrix B (protein component found by mass spectrometry in amniotic fluid cell-derived ECM Matrix B (Example 1)) | Total Spectra Count Matrix C (protein component found by mass spectrometry in amniotic fluid cell-derived ECM Matrix C (Example 1)) | Total Spectra Count Matrix D (protein component found by mass spectrometry in amniotic fluid cell-derived ECM Matrix D (Example 1))
B1 | 0 | 4 | 1 | 1 | – | – | – | –
B2 | – | – | – | – | 22 | 20 | 2 | 18
B3 | 0 | 4 | 0 | 0 | – | – | – | –
B4 | 0 | 10 | 0 | 0 | – | – | – | –
B5 | 0 | 5 | 0 | 0 | – | – | – | –
